Reference: patent publication US20210100869A1, “COMPOSITIONS AND METHODS OF USING SAME FOR TREATING AMYOTROPHIC LATERAL SCLEROSIS (ALS)” (Immunity Pharma Ltd., priority 2018, published 2021)
Part of at least one peptide drawing is inferred or uncertain, most often the ends. Residues, ends and D or L forms follow the SMILES beside them.

Key:
Format in all cases: in vivo, human
Akt signaling pathway = assay: Open-label Phase 1/2a clinical trial, biomarker data on Akt activation; details: statistically significant
ALS patients [1] = assay: Open-label Phase 1/2a clinical trial, lung function by slow vital capacity (SVC)
ALS patients [2] = assay: Open-label Phase 1/2a clinical trial, functional impairment by ALSFRS-R score; details: 3.2 mg/kg daily IV

Question: Which results are given for `CC(C)C[C@H](NC(=O)[C@@H]1CCCN1C(=O)[C@@H]1CCCN1C(=O)[C@@H](N)CC(C)C)C(=O)N1CCC[C@H]1C(=O)N[C@@H](Cc1ccc(O)cc1)C(=O)N1CCC[C@H]1C(=O)O` [IPL344, LPPLPYP] (H-LPPLPYP-OH)?
Answer: Akt activation levels in patients (Akt signaling pathway): restored. Akt activation levels in patients back to their normal levels; Decline (improvement) in the rate of lung function deterioration (ALS patients [1]; six patients versus general ALS population): 57%; SVC lost per month, average (ALS patients [1]; six patients, 3.2 mg/kg daily IV, general ALS population average 3.1%): 1.3 % SVC per month; Slower decline in ALSFRS-R score compared to decline prior to treatment (ALS patients [2]; first six patients, treated 4-13 months (average 8 months), p=0.08): 49%; Slowing of disease progression (ALSFRS-R) beyond the first two months of treatment (ALS patients [2]; six patients, after the two-months mark, p=0.03): 61%; Fewer ALSFRS-R points lost than projected from pre-treatment progression (ALS patients [2]; six patients, average eight months of treatment): 4.7 ALSFRS-R points
